Our source for the binding values is paper doi:10.1101/2022.10.12.511875.

By UniProt entry, the sequences of proteins in these tests, tags left out. Where a name states a change or a piece, a line headed by the entry shows the natural chain unless it says otherwise. Residues count along the entry.
UniProt O04921: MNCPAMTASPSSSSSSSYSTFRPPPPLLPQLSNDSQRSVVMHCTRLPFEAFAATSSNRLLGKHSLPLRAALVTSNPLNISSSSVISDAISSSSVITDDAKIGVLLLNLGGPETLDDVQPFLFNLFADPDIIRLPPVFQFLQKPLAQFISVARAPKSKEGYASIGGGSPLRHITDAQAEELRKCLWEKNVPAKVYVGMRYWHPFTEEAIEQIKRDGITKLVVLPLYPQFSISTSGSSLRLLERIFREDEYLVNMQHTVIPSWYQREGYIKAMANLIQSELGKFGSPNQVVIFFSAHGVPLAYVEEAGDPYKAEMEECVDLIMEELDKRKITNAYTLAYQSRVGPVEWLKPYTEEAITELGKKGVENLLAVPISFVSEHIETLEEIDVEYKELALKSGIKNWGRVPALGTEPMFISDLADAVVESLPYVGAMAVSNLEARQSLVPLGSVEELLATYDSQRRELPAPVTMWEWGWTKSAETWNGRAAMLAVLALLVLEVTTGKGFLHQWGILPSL
UniProt Q940U6, residues 27-316: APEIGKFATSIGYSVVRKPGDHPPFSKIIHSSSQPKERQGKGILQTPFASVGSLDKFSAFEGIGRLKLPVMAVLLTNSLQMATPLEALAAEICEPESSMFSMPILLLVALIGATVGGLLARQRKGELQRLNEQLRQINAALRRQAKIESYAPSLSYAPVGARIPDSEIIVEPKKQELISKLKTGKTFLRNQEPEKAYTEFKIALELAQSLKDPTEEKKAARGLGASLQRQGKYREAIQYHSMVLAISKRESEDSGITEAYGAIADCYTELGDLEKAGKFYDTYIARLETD
UniProt P42043: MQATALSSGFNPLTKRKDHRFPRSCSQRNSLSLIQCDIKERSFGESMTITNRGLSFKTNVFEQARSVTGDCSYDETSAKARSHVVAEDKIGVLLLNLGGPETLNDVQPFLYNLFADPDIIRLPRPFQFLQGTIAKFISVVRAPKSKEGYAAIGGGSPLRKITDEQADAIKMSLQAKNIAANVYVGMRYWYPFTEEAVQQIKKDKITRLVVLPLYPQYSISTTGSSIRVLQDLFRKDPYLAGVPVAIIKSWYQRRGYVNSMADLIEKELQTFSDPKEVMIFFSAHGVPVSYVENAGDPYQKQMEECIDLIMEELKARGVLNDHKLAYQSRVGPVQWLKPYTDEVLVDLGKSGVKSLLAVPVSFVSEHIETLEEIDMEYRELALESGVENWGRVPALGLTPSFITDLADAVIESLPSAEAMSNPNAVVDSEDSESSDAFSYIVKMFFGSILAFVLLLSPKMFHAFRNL

Read-outs that look alike come from different tables or passages of the source. Results are given in words; binding and its absence hold for the method and conditions named. For some assays here: In cells and extracts the contact can be indirect. Some binding calls cover weakened binding; strength is not graded here. For some assays here: Tags and fused reporters may be left off the sequences shown.

Assay [1] deals with T1, protochlorophyllide oxidoreductase C (PORC), yeast split-ubiquitin fusion (Arabidopsis thaliana) (UniProt O48741).
T1 sequence: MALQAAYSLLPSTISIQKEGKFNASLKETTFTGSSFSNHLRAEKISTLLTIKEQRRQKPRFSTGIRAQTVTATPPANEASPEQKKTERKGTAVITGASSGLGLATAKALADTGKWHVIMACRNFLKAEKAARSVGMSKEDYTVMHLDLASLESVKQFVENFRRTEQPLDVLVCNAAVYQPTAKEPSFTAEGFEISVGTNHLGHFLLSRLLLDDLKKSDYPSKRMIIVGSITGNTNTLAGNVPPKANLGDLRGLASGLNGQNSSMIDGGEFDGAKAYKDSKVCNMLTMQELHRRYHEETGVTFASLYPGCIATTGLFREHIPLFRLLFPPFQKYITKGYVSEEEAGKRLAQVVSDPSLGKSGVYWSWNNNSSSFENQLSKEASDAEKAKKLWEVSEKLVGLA
Description: two-hybrid.

The target in assay [2] is T2, protochlorophyllide oxidoreductase B (PORB), yeast split-ubiquitin fusion (Arabidopsis thaliana) (UniProt P21218).
T2 sequence: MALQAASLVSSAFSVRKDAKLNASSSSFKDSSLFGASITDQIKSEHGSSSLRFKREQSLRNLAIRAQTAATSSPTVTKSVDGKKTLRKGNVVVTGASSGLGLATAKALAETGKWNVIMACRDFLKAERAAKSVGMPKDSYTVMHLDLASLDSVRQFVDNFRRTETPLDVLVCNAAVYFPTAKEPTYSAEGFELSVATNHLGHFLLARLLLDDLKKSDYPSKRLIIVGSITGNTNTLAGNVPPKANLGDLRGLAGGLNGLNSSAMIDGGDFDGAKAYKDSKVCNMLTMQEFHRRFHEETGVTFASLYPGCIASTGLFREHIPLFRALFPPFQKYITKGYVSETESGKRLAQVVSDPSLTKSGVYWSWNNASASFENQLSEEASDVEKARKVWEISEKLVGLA
As to the kind of experiment: two-hybrid.

In assay [3] the target is T3, protochlorophyllide oxidoreductase A (PORA), yeast split-ubiquitin fusion (Arabidopsis thaliana) (UniProt Q42536).
T3 sequence: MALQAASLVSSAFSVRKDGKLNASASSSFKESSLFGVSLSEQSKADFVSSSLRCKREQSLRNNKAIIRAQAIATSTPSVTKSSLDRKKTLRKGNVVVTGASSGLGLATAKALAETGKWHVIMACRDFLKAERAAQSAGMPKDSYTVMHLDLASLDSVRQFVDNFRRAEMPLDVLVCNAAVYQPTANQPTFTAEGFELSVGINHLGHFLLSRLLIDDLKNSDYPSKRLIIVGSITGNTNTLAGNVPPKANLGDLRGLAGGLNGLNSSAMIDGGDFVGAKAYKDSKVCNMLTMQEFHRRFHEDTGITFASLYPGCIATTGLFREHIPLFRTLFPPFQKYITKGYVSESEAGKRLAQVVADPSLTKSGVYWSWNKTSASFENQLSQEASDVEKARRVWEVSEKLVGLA
As to the kind of experiment: two-hybrid.

In assay [4] the target is ferrochelatase 2 (FC2), yeast split-ubiquitin fusion (Arabidopsis thaliana) (UniProt O04921). Description: two-hybrid.
For assay [5], the target named is T4, protochlorophyllide oxidoreductase B (PORB), BiFC fusion (Arabidopsis thaliana) (UniProt P21218).
T4 sequence: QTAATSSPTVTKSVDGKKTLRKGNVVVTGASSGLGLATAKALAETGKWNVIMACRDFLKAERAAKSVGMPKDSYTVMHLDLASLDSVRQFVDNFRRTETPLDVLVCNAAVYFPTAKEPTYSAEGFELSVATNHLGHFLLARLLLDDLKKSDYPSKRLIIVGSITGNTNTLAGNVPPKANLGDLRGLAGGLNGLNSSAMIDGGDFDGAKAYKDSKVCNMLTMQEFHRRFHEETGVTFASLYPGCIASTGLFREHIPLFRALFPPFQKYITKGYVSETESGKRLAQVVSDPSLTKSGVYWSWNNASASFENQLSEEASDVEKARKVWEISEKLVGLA
Description: split reporter.

The target of assay [6] is T5, protoporphyrinogen oxidase 1 (PPO1), BiFC fusion (Arabidopsis thaliana) (UniProt P55826).
T5 sequence: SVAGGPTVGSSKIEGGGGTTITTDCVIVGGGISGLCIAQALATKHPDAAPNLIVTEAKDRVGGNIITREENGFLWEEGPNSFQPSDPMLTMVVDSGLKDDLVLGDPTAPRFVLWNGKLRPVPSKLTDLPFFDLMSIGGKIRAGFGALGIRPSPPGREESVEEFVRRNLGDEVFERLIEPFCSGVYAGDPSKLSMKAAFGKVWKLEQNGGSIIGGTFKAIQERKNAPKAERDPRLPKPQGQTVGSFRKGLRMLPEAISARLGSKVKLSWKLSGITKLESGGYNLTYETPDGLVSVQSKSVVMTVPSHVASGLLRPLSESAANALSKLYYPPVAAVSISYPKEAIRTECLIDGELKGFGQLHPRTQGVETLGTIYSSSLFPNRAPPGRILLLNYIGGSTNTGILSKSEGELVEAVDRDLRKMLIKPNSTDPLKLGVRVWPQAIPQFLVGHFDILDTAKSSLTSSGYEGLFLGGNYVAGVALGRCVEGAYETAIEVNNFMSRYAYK
As to the kind of experiment: split reporter.

Assay [7] has as its target T6, protochlorophyllide oxidoreductase A (PORA), BiFC fusion (Arabidopsis thaliana) (UniProt Q42536).
T6 sequence: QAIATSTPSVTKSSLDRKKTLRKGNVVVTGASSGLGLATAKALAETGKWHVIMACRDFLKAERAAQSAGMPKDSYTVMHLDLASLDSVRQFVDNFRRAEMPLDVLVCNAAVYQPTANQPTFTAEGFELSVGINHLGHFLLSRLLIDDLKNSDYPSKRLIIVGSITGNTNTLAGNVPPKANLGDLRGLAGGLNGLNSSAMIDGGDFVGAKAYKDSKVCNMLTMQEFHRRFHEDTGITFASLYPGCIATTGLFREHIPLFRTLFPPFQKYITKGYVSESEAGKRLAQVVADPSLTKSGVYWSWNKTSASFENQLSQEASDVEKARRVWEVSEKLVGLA
Description: split reporter.

The target in assay [8] is T7, protochlorophyllide oxidoreductase C (PORC), BiFC fusion (Arabidopsis thaliana) (UniProt O48741).
T7 sequence: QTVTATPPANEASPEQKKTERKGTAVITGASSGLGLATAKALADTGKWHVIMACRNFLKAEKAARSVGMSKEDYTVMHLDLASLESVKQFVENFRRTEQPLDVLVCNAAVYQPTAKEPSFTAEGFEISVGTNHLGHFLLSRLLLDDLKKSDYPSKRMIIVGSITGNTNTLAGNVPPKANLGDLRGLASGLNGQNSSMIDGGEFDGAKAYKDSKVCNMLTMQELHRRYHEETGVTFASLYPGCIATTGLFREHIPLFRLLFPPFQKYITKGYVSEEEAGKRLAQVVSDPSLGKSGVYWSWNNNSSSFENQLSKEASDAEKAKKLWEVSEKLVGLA
Description: split reporter.

The target of assay [9] is FLU (FLUORESCENT IN BLUE LIGHT), BiFC fusion (Arabidopsis thaliana) (UniProt Q940U6). Description: split reporter.
Assay [10] shares this target. Description: split reporter. This is another data set of the same source.

In the case of “ferrochelatase 1 (FC1), yeast split-ubiquitin fusion (from UniProt P42043 1-466) (enzyme)”, the binding result was “no binding” in assay [1], “no binding” in assay [2], “no binding” in assay [3] and “binds” in assay [4].
As for “ferrochelatase 2 (FC2), BiFC fusion (from UniProt O04921 84-512) (enzyme)”, the binding entry in assay [5], in assay [6], in assay [7], in assay [8] and in assay [9] was “binds” in each case.
“ferrochelatase 2 (FC2), yeast split-ubiquitin fusion (from UniProt O04921 1-512) (enzyme)”: the binding result in [1], in assay [2], in assay [3] and in assay [4] was “binds” throughout.

B1: protochlorophyllide oxidoreductase B (PORB), BiFC fusion (enzyme, UniProt P21218 67-401)
chain: QTAATSSPTVTKSVDGKKTLRKGNVVVTGASSGLGLATAKALAETGKWNVIMACRDFLKAERAAKSVGMPKDSYTVMHLDLASLDSVRQFVDNFRRTETPLDVLVCNAAVYFPTAKEPTYSAEGFELSVATNHLGHFLLARLLLDDLKKSDYPSKRLIIVGSITGNTNTLAGNVPPKANLGDLRGLAGGLNGLNSSAMIDGGDFDGAKAYKDSKVCNMLTMQEFHRRFHEETGVTFASLYPGCIASTGLFREHIPLFRALFPPFQKYITKGYVSETESGKRLAQVVSDPSLTKSGVYWSWNNASASFENQLSEEASDVEKARKVWEISEKLVGLA
B1: in [10], the binding entry is “binds”.
